Laboratory results: PubChem BioAssay AID662 (National Center for Advancing Translational Sciences (NCATS), 2007)
Values joined by “and” are separate entries in the source; they are usually repeats but may differ in a detail not shown here. Equal entries are not always repeated. The list shows a part of the results. Further columns of the screen follow, without active or inactive calls. Most of these compounds were active or inconclusive in the main read-out, so they are no random draw. Words in brackets tell the shape of the fitted curve; partial curves, single points and poor fits give uncertain potencies.

Assay: Cell signaling CRE-BLA (Fsk stim)
Conditions: CHO CRE-bla reporter (cAMP response element driving beta-lactamase), forskolin EC10, beta-lactamase ratio; measured here: 460 nm blue channel
Procedure, shortened: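 Forskolin analogue NKH 477 at EC10 stimulated CRE-driven beta-lactamase in CHO cells alongside compound dilution series. Beta-lactamase was measured with CCF4, excitation 405 nm, emission ratio 460/530 nm.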

Row | SMILES | AC50
1 | CCOC(=O)CN(C(=O)CSc1nnc2c(n1)[nH]c1ccc(OC)cc12)c1ccc(F)cc1 | 7.94 µM [rising, partial curve]
2 | COC(=O)c1ccc(OCC(=O)c2ccc(O)cc2O)cc1 | 7.94 µM [falling, partial curve]
3 | c1cncc(-c2nc3ccccc3o2)c1 | 0.0251 µM [falling, full curve]
4 | CCN(CC)CCOC(=O)C1(c2ccc([N+](=O)[O-])cc2)CCCC1 | 20 µM [falling, partial curve, poor fit]
5 | Cc1cc(C)n(-c2nc(C)nc(NCc3ccccc3)n2)n1 | 10 µM [rising, partial curve]
6 | O=C1c2oc3ccccc3c(=O)c2C(c2cccc(F)c2)N1CCCO (stereo not given) | 15.8 µM [falling, partial curve]
7 | O=C1[C@@H]2C(Cc3ccc(O)cc3)NC3(C(=O)Nc4ccc(F)cc43)[C@@H]2C(=O)N1c1ccc(F)cc1 (stereo not given in full) | 20 µM [falling, partial curve, poor fit]
8 | COc1ccc(-c2nn(C)c(=O)c3ccccc23)cc1CNS(C)(=O)=O | 25.1 µM [rising, single point]
9 | CCCOC(=O)c1ccc(Oc2cn[nH]c2-c2ccc(OCC)cc2O)cc1 | 10 µM [falling, partial curve]
10 | CCN(CC)c1ccc2cc(C(=O)Nc3ccc(-n4cnnn4)c(OC)c3)c(=O)oc2c1 | 12.6 µM [rising, partial curve]
11 | O=C(CN1CCN(c2ccccc2)CC1)N1CCN(c2ccccc2)CC1 | 10 µM [falling, partial curve]
12 | Cc1cccc(N2CCN(c3cccc(C)c3)C2c2cccnc2)c1 | 25.1 µM [falling, single point]
13 | COc1cc(-c2noc(-c3ccco3)n2)cc(OC)c1OC | 10 µM [rising, partial curve]
14 | O=C1CCCN1CC(CN1CCOCC1)Sc1nc2ccccc2c(=O)n1-c1ccccc1 (stereo not given) | 12.6 µM [rising, single point]
15 | COCCn1c(=O)c(-c2cc(F)cc(F)c2)nc2cnc(Nc3cccc(OC)c3)nc21 | 1.58 µM [rising, full curve]
16 | Cc1ccc(C)c2nc(N3CCCC3)c(C#N)cc12 | 10 µM [rising, partial curve]
17 | Cc1cc(NC(=O)c2c(F)c(F)c(F)c(F)c2F)no1 | 25.1 µM [falling, single point]
18 | COc1ccc(-c2nnc(SC(C)C(=O)Nc3nccs3)n2-c2ccccc2)cc1OC (stereo not given) | 10 µM [rising, partial curve]
19 | Cc1nc(NCCN2CCOCC2)c2oc3ccccc3c2n1 | 7.94 µM [falling, partial curve]
20 | Cc1nnsc1-c1nc2ccccc2[nH]1 | 25.1 µM [rising, single point]
21 | CN1C(=O)c2ccc(N3CCCC3)cc2C1=O | 10 µM [rising, single point]
22 | CCOC(=O)c1c(C)[nH]c(C(=O)CN2CCOCC2)c1C | 25.1 µM [rising, single point]

Laid out differently: results already given

| Row | SMILES | AC50 |
| --- | --- | --- |
| 1 | CCOC(=O)CN(C(=O)CSc1nnc2c(n1)[nH]c1ccc(OC)cc12)c1ccc(F)cc1 | 7.94 µM [rising, partial curve] |
| 2 | COC(=O)c1ccc(OCC(=O)c2ccc(O)cc2O)cc1 | 7.94 µM [falling, partial curve] |
| 3 | c1cncc(-c2nc3ccccc3o2)c1 | 0.0251 µM [falling, full curve] |
| 4 | CCN(CC)CCOC(=O)C1(c2ccc([N+](=O)[O-])cc2)CCCC1 | 20 µM [falling, partial curve, poor fit] |
| 6 | O=C1c2oc3ccccc3c(=O)c2C(c2cccc(F)c2)N1CCCO (stereo not given) | 15.8 µM [falling, partial curve] |
| 8 | COc1ccc(-c2nn(C)c(=O)c3ccccc23)cc1CNS(C)(=O)=O | 25.1 µM [rising, single point] |
| 9 | CCCOC(=O)c1ccc(Oc2cn[nH]c2-c2ccc(OCC)cc2O)cc1 | 10 µM [falling, partial curve] |
| 10 | CCN(CC)c1ccc2cc(C(=O)Nc3ccc(-n4cnnn4)c(OC)c3)c(=O)oc2c1 | 12.6 µM [rising, partial curve] |
| 12 | Cc1cccc(N2CCN(c3cccc(C)c3)C2c2cccnc2)c1 | 25.1 µM [falling, single point] |
| 13 | COc1cc(-c2noc(-c3ccco3)n2)cc(OC)c1OC | 10 µM [rising, partial curve] |
| 14 | O=C1CCCN1CC(CN1CCOCC1)Sc1nc2ccccc2c(=O)n1-c1ccccc1 (stereo not given) | 12.6 µM [rising, single point] |
| 15 | COCCn1c(=O)c(-c2cc(F)cc(F)c2)nc2cnc(Nc3cccc(OC)c3)nc21 | 1.58 µM [rising, full curve] |
| 16 | Cc1ccc(C)c2nc(N3CCCC3)c(C#N)cc12 | 10 µM [rising, partial curve] |
| 17 | Cc1cc(NC(=O)c2c(F)c(F)c(F)c(F)c2F)no1 | 25.1 µM [falling, single point] |
| 18 | COc1ccc(-c2nnc(SC(C)C(=O)Nc3nccs3)n2-c2ccccc2)cc1OC (stereo not given) | 10 µM [rising, partial curve] |
| 19 | Cc1nc(NCCN2CCOCC2)c2oc3ccccc3c2n1 | 7.94 µM [falling, partial curve] |
| 20 | Cc1nnsc1-c1nc2ccccc2[nH]1 | 25.1 µM [rising, single point] |
| 21 | CN1C(=O)c2ccc(N3CCCC3)cc2C1=O | 10 µM [rising, single point] |
| 22 | CCOC(=O)c1c(C)[nH]c(C(=O)CN2CCOCC2)c1C | 25.1 µM [rising, single point] |

(next part)

Row | SMILES | AC50
23 | CCCc1nc2n[nH]c(N)c2c2c1CCC2 | 0.631 µM [rising, full curve, poor fit]
24 | CN(C)CCCN1c2ccccc2CCc2ccc(Cl)cc21 | 31.6 µM [falling, single point]
25 | CC(=O)N1CCN(C(C)=O)C1c1ccccc1 | 0.398 µM [rising, partial curve]
26 | CN(C)c1ncc2nc(-c3cc(F)cc(F)c3)c(=O)n(Cc3ccc(F)cc3)c2n1 | 3.98 µM [rising, partial curve]
27 | O=c1c2[nH]c3ccc(Cl)cc3c2ncn1Cc1ccccn1 | 10 µM [rising, partial curve]
28 | Cc1csc(NC(=O)CSc2nc(C(C)C)nc3c2c(=O)n(C)c(=O)n3C)n1 | 3.16 µM [rising, full curve]
29 | COc1cccc(NC(=O)Cc2ccccc2)c1 | 0.794 µM [rising, full curve, poor fit]
30 | Cc1c(C(=O)NCCCN2CCOCC2)sc2nc(-c3ccccc3)cn12 | 10 µM [rising, partial curve]
31 | O=c1cc(N2CCN(Cc3ccccc3)CC2)[nH]c(=O)n1-c1cccc(C(F)(F)F)c1 | 7.94 µM [rising, partial curve]
32 | CC(=O)O[C@H]1CC[C@@]2(C)C(=CC[C@@H]3[C@H]4CC[C@@H]([C@H](C)C(=O)O)[C@]4(C)CC[C@H]32)C1 | 5.01 µM [rising, single point]
33 | Cn1c(C(=O)Nc2ccc3c(c2)OCO3)cc2c(=O)n(C)c3ccccc3c21 | 1.58 µM [rising, full curve]
34 | C=CCn1c(SCc2cc(=O)n3ccsc3n2)nc2scc(C3CC3)c2c1=O | 0.398 µM [rising, partial curve]
35 | Cc1cc(NC(=O)c2ccc(S(=O)(=O)N3CCCC3)cc2)nc2c1c(=O)oc1ccccc12 | 6.31 µM [rising, full curve, poor fit]
36 | CC1(C)Cc2c(sc3c2c(=N)n(Cc2ccco2)c(=O)n3Cc2ccc(Cl)cc2)CO1 | 0.794 µM [rising, full curve]
37 | CCCC(=O)Nc1nnc(Sc2ccc(N(C)C)cc2)s1 | 2.51 µM [rising, partial curve]
38 | COc1ccc(C2C(C(=O)O)CC(=O)N2c2ccc(OC)cc2)cc1 (stereo not given) | 25.1 µM [falling, single point]
39 | Cn1c(=O)c2c(nc(SCCCC#N)n2Cc2ccccc2F)n(C)c1=O | 10 µM [rising, single point]
40 | CC(C)[C@@H](CC(=O)N[C@@H]1CCNC[C@H]1C(=O)N[C@H](CC(=O)N[C@@H](CCC(=O)O)CC(=O)O)Cc1ccccc1)NC(=O)C[C@H](Cc1c[nH]c2ccccc12)NC(=O)[C@@H]1CCCC[C@H]1N | 15.8 µM [falling, partial curve]
41 | Cc1ccc(NC2c3ncccc3C(=O)N2C2CCCCC2)cc1 (stereo not given) | 1.26 µM [rising, full curve, poor fit]
42 | CCCOc1ccc2oc(=O)c3c(c2c1)CCCN3C(=O)CN1CCc2ccccc2C1 | 3.98 µM [rising, full curve, poor fit]
43 | NC(=O)C(F)(F)C12OC3C4C5CC(C6C5C3C61)C42 (stereo not given) | 5.01 µM [falling, single point]
44 | COC(=O)C1=C(C)NC(C)=C(C(=O)OC)C1c1ccccc1[N+](=O)[O-] | 10 µM [rising, partial curve] and 12.6 µM [rising, partial curve] and 5.01 µM [rising, partial curve]

Row | SMILES | AC50
45 | CCC(=O)N(CC)c1nc(-c2ccc(OC)cc2)cs1 | 3.16 µM [rising, single point]
46 | CN(C)c1ncc2nc(-c3ccc(Cl)cc3)c(=O)n(C3CC3)c2n1 | 2.51 µM [rising, full curve]
47 | Cn1cccc1C(=O)N1CCC2(CC1)CN(c1ccccn1)C2 | 25.1 µM [rising, single point]
48 | O=c1c(-c2ccccc2)[n+]([O-])c2ccccc2n1O | 25.1 µM [rising, single point]
49 | CN(C)c1ccc(-c2nc(-n3ccnc3)c3ccccc3n2)cc1 | 10 µM [rising, partial curve]
50 | CC(C)C(C)(C#N)NC(=O)CSc1nc2scc(-c3ccco3)c2c(=O)n1-c1ccccc1 (stereo not given) | 10 µM [rising, partial curve]
51 | CCn1c(=O)cc(OCC(=O)N2CCN(C(=O)c3ccco3)CC2)c2ccccc21 | 25.1 µM [rising, partial curve, poor fit]
52 | Cc1cc2c(cc(C(=O)O)n2C)s1 | 0.0251 µM [falling, full curve, poor fit]
53 | O=c1cnc2cnc(N3CCNCC3)nc2n1Cc1ccc(F)cc1 | 12.6 µM [rising, single point]
54 | COc1ccc(CCNS(=O)(=O)c2ccccc2)cc1OC | 0.00398 µM [falling, full curve, poor fit]
55 | O=C(Cc1cccs1)N(Cc1ccco1)C1(C(=O)NC2CCCC2)CCCCC1 | 7.94 µM [rising, partial curve, poor fit]
56 | N#C/C=C1\n2c(nc3ccccc32)OC12CCCCC2 | 10 µM [rising, partial curve]
57 | O=C1CSC(c2cn(-c3ccccc3)nc2-c2cccs2)N1CC1CCCO1 (stereo not given) | 10 µM [rising, partial curve]
58 | Cc1ccc(-c2nnn(CC(=O)Nc3ccccc3N3CCOCC3)n2)cc1 | 10 µM [rising, partial curve]
59 | COC(=O)c1ccc(CSc2nc3c(cnn3-c3ccc(C)cc3)c(=O)[nH]2)o1 | 0.316 µM [rising, full curve]
60 | CCN(CC)C(=O)CSC(=Nc1ccccc1F)NC#N | 0.501 µM [falling, full curve, poor fit]
61 | CC(C)Cn1c(=O)c(C(=O)NCc2ccccn2)c(O)c2ccccc21 | 0.794 µM [rising, full curve, poor fit]
62 | OC(COc1c(Br)cc(Br)cc1Br)CN1CCOCC1 (stereo not given) | 10 µM [rising, single point]
63 | CCOC(=O)Cc1nnc(NC(=O)CSc2ccccc2)s1 | 15.8 µM [falling, single point]
64 | Cc1ccc(NC(=O)COC(=O)C2CCC(=O)N2)c(S(=O)(=O)N2CCOCC2)c1 (stereo not given) | 0.00398 µM [falling, full curve, poor fit]
65 | CCn1c(=NC(=O)CSC(C)=O)sc2ccccc21 | 0.2 µM [falling, full curve, poor fit]
